{
  "source": "PubChem BioAssay AID330",
  "about": "(DTP/NCI, 2004)",
  "test_system": "P388 leukemia ip, CD2F1 mice, survival T/C",
  "test": "NCI In Vivo Anticancer Drug Screen. Data for tumor model P388 Leukemia (intraperitoneal) in CD2F1 (CDF1) mice",
  "conditions": "T/C endpoint: median survival time, higher T/C = longer survival",
  "key": {"[1]": {"conditions": "dose: 3.12 mg/kg/injection, schedule: Q01DX009 (ip), vehicle: saline"}, "[2]": {"conditions": "dose: 6.25 mg/kg/injection, schedule: Q01DX009 (ip), vehicle: saline"}, "[3]": {"conditions": "dose: 12.5 mg/kg/injection, schedule: Q01DX009 (ip), vehicle: saline"}, "[4]": {"conditions": "dose: 25.0 mg/kg/injection, schedule: Q01DX009 (ip), vehicle: saline"}, "[5]": {"conditions": "dose: 100.0 mg/kg/injection, schedule: Q01DX009 (ip), vehicle: saline with Tween-80"}, "[6]": {"conditions": "dose: 200.0 mg/kg/injection, schedule: Q01DX009 (ip), vehicle: saline with Tween-80"}, "[7]": {"conditions": "dose: 200.0 mg/kg/injection, schedule: Q01DX009 (ip), vehicle: distilled water + Tween-80"}, "[8]": {"conditions": "dose: 50.0 mg/kg/injection, schedule: Q01DX009 (ip), vehicle: Klucel (hydroxypropylcellulose) (HPC)"}},
  "note": "The list is a part of this screen's results and no random one: it gathers tests that were run many times, whatever their T/C, doses with no T/C, and many T/C values between a quarter and a half above the control. Further doses and runs are listed elsewhere. T/C: endpoint of the treated group in % of that of the vehicle group. Some doses have a count of surviving animals in place of a T/C: the source holds a T/C of zero for them, seemingly a mark for toxic or unscored doses. Some doses without a T/C left all or most animals alive at the check, yet need not have been tolerated: the source hardly ever lists a survival T/C far under the control, and the zero likely stands for such cases as well. Counts of survivors are from the toxicity check (mostly the fifth day) where no day follows; animals may have died later. Schedule codes are those of the source, read here as Q, the interval in days (D) or hours (H), X, the number of doses. For survival time, the PubChem record calls one and a half times the control and up active, and a quarter to a half above the control has no call in these data; cut-offs in other NCI protocols can differ. Some T/C values are followed by the survivors on the day toxicity was checked, most often the fifth; where none is given, no animal had died by that day. Some entries were tested several times; their values stand side by side, smallest first.",
  "data": [
    {"compound": "Cc1cccc(C)c1NC(=O)NNC(N)=S", "values": [
      {"measurement": "T/C", "setting": "[1]", "result": "97, 102, 107 % of control [5 of 6 alive]"},
      {"measurement": "survivor count", "setting": "[1]", "result": "6 of 6"},
      {"measurement": "T/C", "setting": "[2]", "result": "90, 101 [5 of 6 alive], 104 % of control [5 of 6 alive]"},
      {"measurement": "survivor count", "setting": "[2]", "result": "6 of 6"},
      {"measurement": "T/C", "setting": "[3]", "result": "94, 98, 99, 100 % of control"},
      {"measurement": "survivor count", "setting": "[3]", "result": "6 of 6"},
      {"measurement": "T/C", "setting": "[4]", "result": "89, 96, 111, 120 % of control"},
      {"measurement": "survivor count", "setting": "[4]", "result": "5 of 6"},
      {"measurement": "survivor count", "setting": "dose: 50.0 mg/kg/injection, schedule: Q01DX009 (ip), vehicle: saline", "result": "1 of 6"},
      {"measurement": "survivor count", "setting": "[5]", "result": "0 of 6"},
      {"measurement": "survivor count", "setting": "[6]", "result": "0 of 6"}
    ]},
    {"compound": "CC([NH-])C(=O)O.[Cl][Pt][Cl]", "note": "(centres undefined)", "values": [
      {"measurement": "T/C", "setting": "dose: 12.5 mg/kg/injection, schedule: Q01DX009 (ip), vehicle: distilled water + Tween-80", "result": "142 % of control"},
      {"measurement": "survivor count", "setting": "dose: 50.0 mg/kg/injection, schedule: Q01DX009 (ip), vehicle: distilled water + Tween-80", "result": "2 of 5"},
      {"measurement": "survivor count", "setting": "dose: 100.0 mg/kg/injection, schedule: Q01DX009 (ip), vehicle: distilled water + Tween-80", "result": "0 of 5"},
      {"measurement": "survivor count", "setting": "[7]", "result": "0 of 5"},
      {"measurement": "survivor count", "setting": "dose: 200.0 mg/kg/injection, schedule: Q01DX009 (ip), vehicle: saline", "result": "2 of 4"}
    ]},
    {"compound": "CCC12OC(COc3ccccc3)CN1CCN2c1ccccc1", "note": "(centres undefined)", "values": [
      {"measurement": "survivor count", "setting": "dose: 240.0 mg/kg/injection, schedule: Q01DX005 (ip), vehicle: saline with Tween-80", "result": "0 of 6"}
    ]},
    {"compound": "COc1cccc2c1C(=O)c1c(O)c3c(c(O)c1C2=O)CC(O)(C(=O)CO)CC3OC1CC(N)C(O)C(C)O1.[Cl][Pt+2][Cl].[NH2-].[NH2-]", "note": "(centres undefined)", "values": [
      {"measurement": "T/C", "setting": "dose: 1.0 mg/kg/injection, schedule: Q04DX003 (ip), vehicle: DMSO", "result": "131 % of control"},
      {"measurement": "T/C", "setting": "dose: 2.0 mg/kg/injection, schedule: Q04DX003 (ip), vehicle: DMSO", "result": "145 % of control"},
      {"measurement": "T/C", "setting": "dose: 4.0 mg/kg/injection, schedule: Q04DX003 (ip), vehicle: DMSO, evaluated on day 30", "result": "132 % of control"},
      {"measurement": "T/C", "setting": "dose: 4.0 mg/kg/injection, schedule: Q04DX003 (ip), vehicle: DMSO, evaluated on day 45", "result": "142 % of control"}
    ]},
    {"compound": "Cn1c(=O)c2c(nc([N+](=O)[O-])n2C)n(C)c1=O", "values": [
      {"measurement": "survivor count", "setting": "dose: 400.0 mg/kg/injection, schedule: Q04DX003 (ip), vehicle: saline", "result": "0 of 6"}
    ]},
    {"compound": "Cc1[nH]c2ccc(N(C)C)cc2c(=O)c1CNCc1ccccc1", "values": [
      {"measurement": "survivor count", "setting": "dose: 12.5 mg/kg/injection, schedule: Q01DX009 (ip), vehicle: saline with Tween-80", "result": "2 of 6"},
      {"measurement": "survivor count", "setting": "dose: 25.0 mg/kg/injection, schedule: Q01DX009 (ip), vehicle: saline with Tween-80", "result": "0 of 6"},
      {"measurement": "survivor count", "setting": "dose: 50.0 mg/kg/injection, schedule: Q01DX009 (ip), vehicle: saline with Tween-80", "result": "1 of 6"},
      {"measurement": "survivor count", "setting": "[5]", "result": "0 of 6"},
      {"measurement": "survivor count", "setting": "[6]", "result": "0 of 6"}
    ]},
    {"compound": "COc1cc2c(c(OC)c1OC)-c1ccc(OC)c(=O)cc1C(N(C)C(=O)CO)CC2", "note": "(centres undefined)", "values": [
      {"measurement": "T/C", "setting": "dose: 0.16 mg/kg/injection, schedule: Q01DX009 (ip), vehicle: saline", "result": "143 % of control"},
      {"measurement": "T/C", "setting": "dose: 0.31 mg/kg/injection, schedule: Q01DX009 (ip), vehicle: Klucel (hydroxypropylcellulose) (HPC)", "result": "131 % of control"},
      {"measurement": "T/C", "setting": "dose: 0.31 mg/kg/injection, schedule: Q01DX009 (ip), vehicle: saline", "result": "143 % of control"},
      {"measurement": "T/C", "setting": "dose: 0.62 mg/kg/injection, schedule: Q01DX009 (ip), vehicle: Klucel (hydroxypropylcellulose) (HPC)", "result": "137 % of control"},
      {"measurement": "survivor count", "setting": "dose: 1.25 mg/kg/injection, schedule: Q01DX009 (ip), vehicle: saline", "result": "4 of 5"},
      {"measurement": "survivor count", "setting": "dose: 2.5 mg/kg/injection, schedule: Q01DX009 (ip), vehicle: Klucel (hydroxypropylcellulose) (HPC)", "result": "4 of 6"},
      {"measurement": "survivor count", "setting": "dose: 2.5 mg/kg/injection, schedule: Q01DX009 (ip), vehicle: saline", "result": "0 of 5"},
      {"measurement": "survivor count", "setting": "dose: 5.0 mg/kg/injection, schedule: Q01DX009 (ip), vehicle: Klucel (hydroxypropylcellulose) (HPC)", "result": "2 of 6"},
      {"measurement": "survivor count", "setting": "dose: 10.0 mg/kg/injection, schedule: Q01DX009 (ip), vehicle: Klucel (hydroxypropylcellulose) (HPC)", "result": "0 of 6"},
      {"measurement": "survivor count", "setting": "dose: 20.0 mg/kg/injection, schedule: Q01DX009 (ip), vehicle: Klucel (hydroxypropylcellulose) (HPC)", "result": "0 of 6"},
      {"measurement": "survivor count", "setting": "dose: 40.0 mg/kg/injection, schedule: Q01DX009 (ip), vehicle: Klucel (hydroxypropylcellulose) (HPC)", "result": "0 of 6"}
    ]},
    {"compound": "COc1cc([N+](=O)[O-])c2nc(Cl)ccc2c1[N+](=O)[O-]", "values": [
      {"measurement": "survivor count", "setting": "dose: 12.5 mg/kg/injection, schedule: Q01DX009 (ip), vehicle: other", "result": "6 of 6"},
      {"measurement": "survivor count", "setting": "dose: 25.0 mg/kg/injection, schedule: Q01DX009 (ip), vehicle: other", "result": "6 of 6"},
      {"measurement": "survivor count", "setting": "dose: 100.0 mg/kg/injection, schedule: Q01DX009 (ip), vehicle: other", "result": "6 of 6"},
      {"measurement": "survivor count", "setting": "dose: 200.0 mg/kg/injection, schedule: Q01DX009 (ip), vehicle: other", "result": "6 of 6"}
    ]},
    {"compound": "CC1/C=C/C=C/CC/C=C/C=C/C=C/C=C/C(OC2OC(C)C(O)C(N)C2O)CC2OC(CC(O)C(O)CCC(O)CC(O)CC(O)CC(=O)OC(C)C(C)C1O)CC(O)C2C(=O)O", "note": "(centres undefined)", "values": [
      {"measurement": "survivor count", "setting": "dose: 100.0 mg/kg/injection, schedule: Q01DX005 (ip), vehicle: saline with Tween-80", "result": "3 of 5"}
    ]},
    {"compound": "COC(=O)C(CSCc1ccccc1)NC(=O)C(CSCc1ccccc1)NC(=O)CCNC(=O)c1ccccc1", "note": "(centres undefined)", "values": [
      {"measurement": "T/C", "setting": "[7]", "result": "125 % of control"}
    ]},
    {"compound": "O=C1C(N2CCCCC2)=C(N2CC2)C(=O)C(N2CCCCC2)=C1N1CC1", "values": [
      {"measurement": "T/C", "setting": "dose: 5.0 mg/kg/injection, schedule: Q01DX009 (ip), vehicle: saline", "result": "144 and 146 % of control"},
      {"measurement": "survivor count", "setting": "dose: 10.0 mg/kg/injection, schedule: Q01DX009 (ip), vehicle: saline", "result": "6 of 6"},
      {"measurement": "survivor count", "setting": "dose: 20.0 mg/kg/injection, schedule: Q01DX009 (ip), vehicle: saline", "result": "2 of 6"}
    ]},
    {"compound": "CC(=O)N=C1C=C(NC(C)=O)C(=O)c2ccccc21", "values": [
      {"measurement": "T/C", "setting": "[8]", "result": "126 % of control"},
      {"measurement": "survivor count", "setting": "[8]", "result": "5 of 6"},
      {"measurement": "survivor count", "setting": "dose: 100.0 mg/kg/injection, schedule: Q01DX009 (ip), vehicle: Klucel (hydroxypropylcellulose) (HPC)", "result": "1 of 6"}
    ]},
    {"compound": "NCCNCC[OH2+].NCCNCC[OH2+].O=[N+]([O-])[O-].[Cu+2]", "values": [
      {"measurement": "survivor count", "setting": "dose: 50.0 mg/kg/injection, schedule: Q04DX003 (ip), vehicle: saline", "result": "2 of 6"}
    ]},
    {"compound": "Cc1cc2c(c3ccccc13)C(=N/N=C(N)N)/C(=N/N=C(N)N)C2", "values": [
      {"measurement": "survivor count", "setting": "dose: 100.0 mg/kg/injection, schedule: Q01DX001 (ip), vehicle: saline with Tween-80", "result": "1 of 6"}
    ]},
    {"compound": "O=C(CC(Sc1ccccc1)c1cccc([N+](=O)[O-])c1)c1ccccc1", "note": "(centres undefined)", "values": [
      {"measurement": "survivor count", "setting": "dose: 200.0 mg/kg/injection, schedule: Q01DX009 (ip), vehicle: Klucel (hydroxypropylcellulose) (HPC)", "result": "2 of 6"},
      {"measurement": "survivor count", "setting": "dose: 400.0 mg/kg/injection, schedule: Q01DX009 (ip), vehicle: Klucel (hydroxypropylcellulose) (HPC)", "result": "2 of 6"}
    ]}
  ]
}
